PubChem BioAssay AID1259297 – Sanger Institute – 2017
In all, the deposit lists 794 reagents; shown is a random part of them. Over the whole deposit, 13 (1.6%) were called active. 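Calls reflect knock-down without drug only; drug synergy is judged separately, with scores above 0.15 counted as synergy.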 Entries without a mark were called inactive. No viability above 1 is reported: the scale is capped. Not given: the amount of reagent, the time to read-out.

Purpose: 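Kinases whose loss kills cells on their own or with targeted drugs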 (primary screen)
Cells: human RCM1 colorectal cancer cell line
Reagents: siRNA pool against human genes
Treatment: separate arms: DMSO vehicle, or one anchor drug at a mild dose: BYL719 1 µM, cetuximab 5 µg/ml, trametinib 10 nM
Read-out: 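Replicate-mean well viability as a share of non-targeting pool control, a robust z-score without drug, and synergy scores for BYL719, cetuximab and trametinib arms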
Scale: viability z-score, knock-down alone: higher = more viable cells than non-targeting controls; viability, knock-down alone (DMSO): higher = more viable cells; synergy score with trametinib: higher = stronger combined killing with trametinib; synergy score with BYL719: higher = stronger combined killing with BYL719; synergy score with cetuximab: higher = stronger combined killing with cetuximab
Hit rule: 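Essential when the viability robust z-score for knock-down alone is below -3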
Meaning of the calls: active = essential when knocked down alone; inactive = no clear loss of viability alone

| target | viability z-score, knock-down alone | viability, knock-down alone (DMSO) (fraction of control) | synergy score with trametinib | synergy score with BYL719 | synergy score with cetuximab |
| --- | --- | --- | --- | --- | --- |
| PRAG1 | -1.88 | 0.742 | 0.0411 | -0.00447 | 0.0289 |
| PAPSS1 | 0.781 | 0.989 | -0.0855 | -0.0368 | -0.128 |
| ACVR2B | 0.0594 | 0.922 | 0.0208 | -0.0589 | -0.0779 |
| CAMK4 | -0.278 | 0.891 | -0.0489 | -0.01 | -0.0408 |
| BUB1B | 0.138 | 0.929 | 0.047 | 0.0326 | 0.0444 |
| ADCK1 | 0.3 | 0.944 | 0.0145 | 0.0388 | -0.167 |
| RUNX1 | -1.34 | 0.792 | 0.134 | 0.0994 | 0.0597 |
| ALPK2 | 0.691 | 0.981 | 0.0195 | 0.0501 | -0.0809 |
| PRKCB | -1.34 | 0.792 | -0.0387 | 0.0452 | 0.0173 |
| NUP62 | 0.9 | 1 | -0.0852 | -0.0728 | -0.118 |
| TWF1 | 0.9 | 1 | 0.1 | -0.0703 | -0.105 |
| MET | 0.9 | 1 | -0.0937 | 0.0653 | 0.0036 |
| PACSIN1 | 0.405 | 0.954 | -0.0278 | -0.103 | -0.136 |
| PLK3 | 0.9 | 1 | 0.0569 | -0.0657 | -0.00859 |
| LIMK1 | -0.727 | 0.849 | 0.00999 | -0.0131 | -0.0142 |
| CHKA | -0.816 | 0.841 | 0.0489 | -0.0679 | -0.00877 |
| CMPK1 | 0.9 | 1 | 0.00618 | -0.0242 | -0.0967 |
| PLK2 | 0.498 | 0.963 | -0.0643 | -0.107 | -0.14 |
| SMG1 | 0.9 | 1 | 0.0974 | -0.0728 | -0.0939 |
| MAPK12 | 0.9 | 1 | -0.0817 | 0 | 0.0645 |
| MELK | 0.9 | 1 | 0.0102 | -0.0494 | -0.118 |
| CKM | -0.249 | 0.893 | -0.194 | -0.0714 | -0.151 |
| MYLK4 | 0.0662 | 0.923 | 0.0128 | -0.0657 | -0.185 |
| SBK1 | 0.9 | 1 | 0.00774 | -0.0728 | 0.0395 |
| IP6K2 | -1.61 | 0.767 | 0.0951 | 0.0464 | -0.0204 |
| SKAP1 | 0.9 | 1 | -0.00373 | -0.0728 | -0.0424 |
| TSKS | 0.9 | 1 | -0.0154 | -0.0728 | -0.118 |
| PTPN11 | 0.099 | 0.926 | -0.000457 | -0.0627 | -0.14 |
| PRKACA | 0.428 | 0.956 | 0.0277 | -0.0385 | -0.157 |
| GRK2 | 0.337 | 0.948 | -0.0464 | -0.0273 | -0.164 |
| ACVR1 | -0.462 | 0.874 | 0.0568 | -0.0398 | -0.0568 |
| RNASEL | 0.417 | 0.955 | 0.0946 | -0.0505 | -0.00234 |
| MAPKAPK5 | 0.311 | 0.945 | -0.115 | -0.107 | 0.0086 |
| PHKA1 | 0.808 | 0.991 | -0.00982 | -0.0807 | -0.126 |
| NEK11 | -2.47 | 0.687 | 0.0531 | -0.0703 | -0.0378 |
| BLK | 0.9 | 1 | -0.0259 | -0.0728 | -0.118 |

Limited to “viability z-score, knock-down alone”, for 11 of the entries above:
TWF1	0.9
MET	0.9
PACSIN1	0.405
PLK3	0.9
LIMK1	-0.727
CHKA	-0.816
CMPK1	0.9
PLK2	0.498
SMG1	0.9
MAPK12	0.9
MELK	0.9

Further records follow.
| target | viability z-score, knock-down alone | viability, knock-down alone (DMSO) (fraction of control) | synergy score with trametinib | synergy score with BYL719 | synergy score with cetuximab |
| --- | --- | --- | --- | --- | --- |
| AKAP9 | -0.312 | 0.887 | 0.0363 | 0.0522 | -0.099 |
| CKS1B | 0.9 | 1 | 0.0107 | -0.0415 | -0.112 |
| PIK3R5 | -0.889 | 0.834 | 0.00439 | 0.0526 | 0.0387 |
| STKLD1 | -0.5 | 0.87 | 0.0223 | -0.0156 | -0.00343 |
| PPP2R1A | 0.795 | 0.99 | -0.0615 | -0.0299 | 0.00346 |
| LTK | 0.306 | 0.945 | -0.0226 | -0.08 | -0.123 |
| GK | 0.705 | 0.982 | -0.00374 | -0.0896 | -0.134 |
| AURKA | -2.66 | 0.669 | -0.0382 | -0.0513 | 0.0821 |
| HCK | 0.387 | 0.952 | -0.00771 | 0.00429 | -0.0394 |
| NME3 | 0.883 | 0.998 | 0.106 | 0.0176 | -0.00994 |
| ULK3 | 0.89 | 0.999 | 0.0197 | -0.0135 | -0.119 |
| RELA | 0.9 | 1 | 0.0577 | -0.0728 | -0.118 |
| PRKAG1 | -0.129 | 0.904 | 0.0268 | -0.0291 | -0.103 |
| MKNK1 | 0.9 | 1 | 0.0841 | -0.0728 | -0.00893 |
| LATS1 | -0.137 | 0.904 | 0.0353 | 0.00155 | 0.00939 |
| PRKAA2 | 0.536 | 0.966 | -0.0226 | -0.0872 | -0.0334 |
| PIK3C2B | 0.343 | 0.948 | 0.0341 | -0.0952 | -0.117 |
| JAK1 | 0.21 | 0.936 | 0.0296 | 0.0153 | -0.159 |
| NR4A2 | -2.92 | 0.646 | 0.0725 | -0.00496 | -0.0123 |
| PDGFRA | 0.9 | 1 | 0.0128 | -0.0728 | -0.118 |
| CKMT1B | 0.376 | 0.951 | 0.111 | -0.061 | -0.0759 |
| CSNK2B | -1.54 | 0.774 | 0.0605 | -0.126 | -0.0357 |
| MTOR | 0.8 | 0.991 | 0.109 | -0.0359 | -0.0997 |
| PRKAG3 | -1.82 | 0.747 | 0.0921 | 0.0037 | -0.0173 |
| STK36 | 0.233 | 0.938 | -0.0233 | -0.0565 | -0.167 |
| PKM | -0.115 | 0.906 | 0.000114 | 0.0022 | -0.181 |
| GCK | -3.24 (active) | 0.616 | 0.0231 | 0.00436 | 0.0165 |
